Assay results: PMC8898363
These are yes or no findings as the source states them, for the method shown. Binding seen in cells or lysates may run through a third protein. Some binding calls cover weakened binding; strength is not graded here.

Protein sequences, listed by entry. Tags and fused reporters are not part of them.
UniProt P57790: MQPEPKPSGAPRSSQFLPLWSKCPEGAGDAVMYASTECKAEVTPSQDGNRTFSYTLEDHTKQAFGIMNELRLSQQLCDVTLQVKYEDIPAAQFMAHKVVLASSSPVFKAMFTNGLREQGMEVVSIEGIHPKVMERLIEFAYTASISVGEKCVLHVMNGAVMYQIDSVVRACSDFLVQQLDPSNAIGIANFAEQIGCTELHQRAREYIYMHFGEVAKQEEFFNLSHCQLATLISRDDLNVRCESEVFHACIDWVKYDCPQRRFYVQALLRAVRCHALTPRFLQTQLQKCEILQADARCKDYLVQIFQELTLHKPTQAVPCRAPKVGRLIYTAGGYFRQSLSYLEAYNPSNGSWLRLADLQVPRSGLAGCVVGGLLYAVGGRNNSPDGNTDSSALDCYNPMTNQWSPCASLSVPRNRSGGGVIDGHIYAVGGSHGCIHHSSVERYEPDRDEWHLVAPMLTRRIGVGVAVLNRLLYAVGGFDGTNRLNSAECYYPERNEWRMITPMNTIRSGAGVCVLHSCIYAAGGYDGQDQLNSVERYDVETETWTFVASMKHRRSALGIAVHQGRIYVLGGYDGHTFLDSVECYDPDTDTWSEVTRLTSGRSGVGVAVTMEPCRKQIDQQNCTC
UniProt B5DF89: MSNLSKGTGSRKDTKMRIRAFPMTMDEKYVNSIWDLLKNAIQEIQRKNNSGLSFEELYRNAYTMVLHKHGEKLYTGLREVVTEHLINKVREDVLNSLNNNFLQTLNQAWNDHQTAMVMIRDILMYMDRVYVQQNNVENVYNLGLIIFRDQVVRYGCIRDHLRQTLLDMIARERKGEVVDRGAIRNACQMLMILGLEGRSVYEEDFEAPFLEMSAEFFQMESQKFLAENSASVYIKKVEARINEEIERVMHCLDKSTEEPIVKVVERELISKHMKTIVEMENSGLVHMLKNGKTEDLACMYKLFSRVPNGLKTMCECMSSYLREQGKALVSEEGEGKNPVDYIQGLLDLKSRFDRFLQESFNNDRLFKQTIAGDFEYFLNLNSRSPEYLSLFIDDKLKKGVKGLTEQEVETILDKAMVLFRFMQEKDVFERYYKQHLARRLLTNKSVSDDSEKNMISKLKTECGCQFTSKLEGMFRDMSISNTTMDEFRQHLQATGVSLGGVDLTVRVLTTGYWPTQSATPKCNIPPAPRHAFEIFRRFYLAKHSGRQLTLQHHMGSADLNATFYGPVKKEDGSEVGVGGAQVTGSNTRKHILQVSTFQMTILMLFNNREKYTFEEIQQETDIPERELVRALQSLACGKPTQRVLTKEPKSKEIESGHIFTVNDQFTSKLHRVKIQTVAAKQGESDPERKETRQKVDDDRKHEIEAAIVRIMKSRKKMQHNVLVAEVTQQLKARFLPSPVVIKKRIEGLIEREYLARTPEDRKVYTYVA

Molecular target: Keap1 (rat (endogenous in adult rat cardiomyocytes)) (UniProt P57790)
Assay: co-IP; adult rat cardiomyocytes, normal or with Notch1 over-expression (interaction impaired) or RBP-Jκ over-expression (interaction not affected); bait and antibodies not told

- binding: binds
Substance: Cullin3 (from UniProt B5DF89 1-768)
